Results taken from PubChem BioAssay AID720551 (National Center for Advancing Translational Sciences (NCATS), 2013).
Out of some 340,000 compounds screened, about 1,300 (0.38%) were called active. Inconclusive means that the source gave no clear call. Such entries were picked first, then a sample of the others.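 Rule for the calls: active = maximum activity change below -70%; inconclusive = maximum activity change between -70% and -50%; inactive = maximum activity change above -50%.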

Amino acid sequences for entries named in this document (tags omitted). A change or cut given only in a name is not applied to a line headed by its entry.
UniProt Q12809: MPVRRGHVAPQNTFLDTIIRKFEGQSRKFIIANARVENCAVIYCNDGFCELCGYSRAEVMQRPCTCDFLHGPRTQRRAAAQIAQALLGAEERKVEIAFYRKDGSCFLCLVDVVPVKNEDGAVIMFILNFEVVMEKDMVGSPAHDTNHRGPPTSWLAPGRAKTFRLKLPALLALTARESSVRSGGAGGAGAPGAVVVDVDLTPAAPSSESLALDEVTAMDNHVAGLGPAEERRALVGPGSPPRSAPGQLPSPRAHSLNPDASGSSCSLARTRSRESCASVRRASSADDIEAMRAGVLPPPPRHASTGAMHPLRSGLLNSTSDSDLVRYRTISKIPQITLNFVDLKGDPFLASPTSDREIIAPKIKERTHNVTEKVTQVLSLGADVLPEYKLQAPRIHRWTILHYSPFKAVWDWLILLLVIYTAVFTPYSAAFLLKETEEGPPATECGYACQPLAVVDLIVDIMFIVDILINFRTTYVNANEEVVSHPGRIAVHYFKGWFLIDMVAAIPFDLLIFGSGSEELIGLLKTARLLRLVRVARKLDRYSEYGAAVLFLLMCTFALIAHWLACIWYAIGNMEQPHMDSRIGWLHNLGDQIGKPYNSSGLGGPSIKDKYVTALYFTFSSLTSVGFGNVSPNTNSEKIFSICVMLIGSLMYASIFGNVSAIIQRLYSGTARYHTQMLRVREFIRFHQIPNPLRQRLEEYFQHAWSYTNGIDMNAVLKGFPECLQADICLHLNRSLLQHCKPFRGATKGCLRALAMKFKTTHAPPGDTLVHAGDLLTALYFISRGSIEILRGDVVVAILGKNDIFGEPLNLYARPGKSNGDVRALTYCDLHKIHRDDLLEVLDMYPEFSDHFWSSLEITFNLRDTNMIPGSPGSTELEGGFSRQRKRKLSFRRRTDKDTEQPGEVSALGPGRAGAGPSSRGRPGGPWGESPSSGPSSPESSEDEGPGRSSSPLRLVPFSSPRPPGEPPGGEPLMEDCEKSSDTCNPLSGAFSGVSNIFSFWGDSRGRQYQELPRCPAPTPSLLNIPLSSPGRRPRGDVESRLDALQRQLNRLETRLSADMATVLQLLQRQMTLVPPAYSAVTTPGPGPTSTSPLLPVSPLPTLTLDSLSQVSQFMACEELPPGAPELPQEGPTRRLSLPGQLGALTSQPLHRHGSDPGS

What follows are molecules tested against Voltage-gated inwardly rectifying potassium channel KCNH2 (Homo sapiens) (UniProt Q12809) (assay: qHTS for Inhibitors of KCHN2 3.1: Wildtype qHTS). Settings: U2OS, BacMam KCNH2, thallium flux FluxOr; at 1.84 µM, stronger effect = lower value.
Summary of the method: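 U2OS cells transduced with wild-type KCNH2 virus are loaded with FluxOr dye for 45 min, and thallium flux is measured in kinetic reads before and after stimulation buffer. Rate constants are normalized to DMSO controls.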
% is set by controls: 0 for no effect and ±100 for the full control effect.

SMILES | activity change
O=C(CN1CCCCCC1)Nc1ccc(Cl)cc1F | inconclusive: -61.5%
Cc1cc(N2CCN(c3ccc(F)cc3)CC2)nc2cc(O)ccc12 | inconclusive: -69.1%
C=CCOc1ccc(CN(C)CC(O)COc2cccc3ccccc23)cc1 (stereo unspecified) | inconclusive: -65.1%
Cc1ccc(N2C(=O)CC(NNc3nc4ccccc4s3)C2=O)cc1C (stereo unspecified) | inactive: -0.517%
CC1=NOC(=O)/C1=C/c1ccc(O)c(Br)c1 | inconclusive: -64.7%
CCC(c1nnnn1Cc1ccc(OC)cc1)N(CCCO)Cc1cc2cc3c(cc2[nH]c1=O)OCO3 (stereo unspecified) | inactive: 2.77%
Cc1ccccc1C(=O)Nc1cccc(NC(=O)c2cccnc2)c1 | active: -78%
C[C@H](CO)N1C[C@H](C)[C@@H](CN(C)S(=O)(=O)c2ccc(Cl)cc2)Oc2ccc(NS(=O)(=O)c3ccccc3)cc2CC1=O | inconclusive: -57.4%
CC(C)C[C@H](NC(=O)OC(C)(C)C)C(=O)N/N=C/C1=Cc2ccccc2OC1C (stereo partly specified) | inactive: 12.2%
COC(C(=O)NNS(=O)(=O)c1ccccc1[N+](=O)[O-])c1ccccc1 (stereo unspecified) | active: -95.6%
COc1cccc(NC(=O)c2cc3c(=O)n4ccccc4nc3n(CC(C)C)c2=N)c1 | active: -73.8%
CCCOc1cccc(-c2cc(C(=O)N/N=C/c3ccccn3)c3ccccc3n2)c1 | inconclusive: -51%
CC(=O)c1ccc(Nc2nc(-c3sc(C)nc3C)cs2)cc1 | active: -134%
O=C(Nc1ccc([N+](=O)[O-])cc1)/C(=C/c1cccc([N+](=O)[O-])c1)NC(=O)C1CCCCC1 | inconclusive: -62.5%
CSC1=NC2(CC(c3ccccc3)Oc3cc(O)ccc32)CC(C)(C)N1 (stereo unspecified) | inconclusive: -57.3%
C=CCn1c(SCc2ccccc2C#N)nnc1-c1cc(Br)ccc1O | inconclusive: -55.3%
CCCC(=O)Nc1cc2c(cc1C(C)=O)OCCO2 | inconclusive: -50.1%
O=C(COc1coc(CN2CCN(c3ccc(F)cc3)CC2)cc1=O)NC1CCCC1 | inactive: 4.5%
CC(=O)N1c2ccc(S(=O)(=O)NCCC(=O)NCc3ccc(F)cc3)cc2CC1C (stereo unspecified) | inactive: -10.2%
CN(CC1CCN(CCc2cccc(C(F)(F)F)c2)CC1)C(=O)c1ccc(F)cc1 | inconclusive: -52.5%
Cc1ccc(NC(=O)c2nn(C34CC5CC(CC(C5)C3)C4)cc2[N+](=O)[O-])cc1 | inactive: -3.79%

Shown tab-delimited: entries from further up
SMILES	activity change
Cc1ccccc1C(=O)Nc1cccc(NC(=O)c2cccnc2)c1	active: -78%
C[C@H](CO)N1C[C@H](C)[C@@H](CN(C)S(=O)(=O)c2ccc(Cl)cc2)Oc2ccc(NS(=O)(=O)c3ccccc3)cc2CC1=O	inconclusive: -57.4%
CC(C)C[C@H](NC(=O)OC(C)(C)C)C(=O)N/N=C/C1=Cc2ccccc2OC1C (stereo partly specified)	inactive: 12.2%
COC(C(=O)NNS(=O)(=O)c1ccccc1[N+](=O)[O-])c1ccccc1 (stereo unspecified)	active: -95.6%
COc1cccc(NC(=O)c2cc3c(=O)n4ccccc4nc3n(CC(C)C)c2=N)c1	active: -73.8%
CCCOc1cccc(-c2cc(C(=O)N/N=C/c3ccccn3)c3ccccc3n2)c1	inconclusive: -51%
CC(=O)c1ccc(Nc2nc(-c3sc(C)nc3C)cs2)cc1	active: -134%
O=C(Nc1ccc([N+](=O)[O-])cc1)/C(=C/c1cccc([N+](=O)[O-])c1)NC(=O)C1CCCCC1	inconclusive: -62.5%
CSC1=NC2(CC(c3ccccc3)Oc3cc(O)ccc32)CC(C)(C)N1 (stereo unspecified)	inconclusive: -57.3%
C=CCn1c(SCc2ccccc2C#N)nnc1-c1cc(Br)ccc1O	inconclusive: -55.3%
CCCC(=O)Nc1cc2c(cc1C(C)=O)OCCO2	inconclusive: -50.1%
O=C(COc1coc(CN2CCN(c3ccc(F)cc3)CC2)cc1=O)NC1CCCC1	inactive: 4.5%

The list goes on.

SMILES | activity change
COC(=O)c1ccc(C2=NOC(C)(c3nnc(-c4cccc(Cl)c4)o3)C2)cc1 (stereo unspecified) | inconclusive: -52.7%
OCC1(CCc2ccccc2)CCCN(CCCc2ccccc2)C1 (stereo unspecified) | inconclusive: -54.2%
CC(=O)N/C(=C/c1ccc2c(c1)OCO2)C(=O)NCC(=O)O | inactive: -7.91%
COc1ccc(/C=N/NC(=O)c2ccccc2F)cc1CN1CCN(c2ccc(F)cc2)CC1 | inconclusive: -52.5%
COc1ccccc1C(=O)NCC(=O)OCC(=O)Nc1ccc2[nH]c(=O)[nH]c2c1 | inactive: -10.4%
CC1=C(C(=O)OCc2ccccc2)C(c2ccc(Cl)cc2Cl)NC(=O)N1CCCC(=O)O (stereo unspecified) | inconclusive: -56.3%
COc1ccc(OC)c(NC(=O)c2ccc(NS(=O)(=O)c3c(C)noc3C)cc2)c1 | inconclusive: -57.7%
COc1ccc(OC)c(CNC(=O)C2CCN(S(=O)(=O)N3CCC(C)CC3)CC2)c1 | inconclusive: -67.2%
O=C(Nc1c(C(=O)N2CCN(c3ccccn3)CC2)oc2ccccc12)c1ccc([N+](=O)[O-])cc1 | inconclusive: -56.5%
O=C1NC[C@H](Cc2ccccc2)N(CC2CCN(CCC3CCCC3)CC2)C1=O | inconclusive: -57.9%
O=C(CSc1nc2cc(Cl)ccc2o1)Nc1ccc(N2CCOCC2)cc1 | inactive: -1.45%
COc1cccc(CC2(CO)CCCN(Cc3ccc(OC(F)F)cc3)C2)c1 (stereo unspecified) | active: -73.9%
O=C(COc1ccccc1)N1CCN(S(=O)(=O)Cc2ccccc2)CC1 | active: -269%
Cc1ccc2c(c1)C(=O)C(=O)N2CC(=O)Nc1ccc(N2CCOCC2)cc1 | inactive: -1.68%
COc1ccc(NC(=O)C(=O)NNC(=O)C(C)Oc2ccc(Cl)cc2Cl)cc1 (stereo unspecified) | inconclusive: -59.7%
CCCCCCc1cc2cc(-c3nnc(-c4ccccc4)o3)c(=O)oc2cc1O | inconclusive: -58.8%
CSc1ccc(/C=N/NC(=O)c2ccc(O)cc2)cc1 | inactive: 1.26%
CCOC(=O)C(C(=O)OCC)C(C)(C)/C(C)=N\Nc1ccc([N+](=O)[O-])cc1[N+](=O)[O-] | inconclusive: -67.4%
Cc1cc(C)c2c(=O)n3c(nc2c1)C(Cc1ccccc1)NC(=O)c1cc2ccccc2cc1-3 (stereo unspecified) | inactive: 3.38%
Cc1cccc(-n2cc(-c3ccc([N+](=O)[O-])cc3)[nH]c2=S)c1 | active: -70.3%
